# Data as given in the supplement of paper PMC5836539.
# Chains of the proteins cited; added tags and fusions are not shown. Lines headed by an entry give the natural chain unless they say otherwise; changes in a name come on top.
# UniProt Q13547, whole entry, looked up: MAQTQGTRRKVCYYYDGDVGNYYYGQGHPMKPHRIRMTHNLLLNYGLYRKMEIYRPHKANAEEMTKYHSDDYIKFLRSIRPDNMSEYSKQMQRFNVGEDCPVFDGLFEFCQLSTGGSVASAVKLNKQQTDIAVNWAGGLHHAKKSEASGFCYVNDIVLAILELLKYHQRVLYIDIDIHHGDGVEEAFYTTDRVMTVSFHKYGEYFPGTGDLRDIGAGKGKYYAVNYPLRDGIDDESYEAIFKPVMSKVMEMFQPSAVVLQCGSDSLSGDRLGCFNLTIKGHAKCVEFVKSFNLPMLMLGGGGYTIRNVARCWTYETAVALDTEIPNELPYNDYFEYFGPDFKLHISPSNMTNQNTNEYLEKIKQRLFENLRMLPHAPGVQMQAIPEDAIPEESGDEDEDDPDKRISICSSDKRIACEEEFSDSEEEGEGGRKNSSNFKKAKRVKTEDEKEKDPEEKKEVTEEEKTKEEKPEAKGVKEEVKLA
# UniProt P51858: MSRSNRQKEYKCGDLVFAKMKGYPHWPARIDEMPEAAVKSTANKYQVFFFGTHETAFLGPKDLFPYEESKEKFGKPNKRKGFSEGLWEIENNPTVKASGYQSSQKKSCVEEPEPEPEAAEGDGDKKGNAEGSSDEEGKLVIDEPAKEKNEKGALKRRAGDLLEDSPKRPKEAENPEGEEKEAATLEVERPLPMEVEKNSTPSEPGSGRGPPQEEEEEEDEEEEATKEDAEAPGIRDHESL
# UniProt O43719: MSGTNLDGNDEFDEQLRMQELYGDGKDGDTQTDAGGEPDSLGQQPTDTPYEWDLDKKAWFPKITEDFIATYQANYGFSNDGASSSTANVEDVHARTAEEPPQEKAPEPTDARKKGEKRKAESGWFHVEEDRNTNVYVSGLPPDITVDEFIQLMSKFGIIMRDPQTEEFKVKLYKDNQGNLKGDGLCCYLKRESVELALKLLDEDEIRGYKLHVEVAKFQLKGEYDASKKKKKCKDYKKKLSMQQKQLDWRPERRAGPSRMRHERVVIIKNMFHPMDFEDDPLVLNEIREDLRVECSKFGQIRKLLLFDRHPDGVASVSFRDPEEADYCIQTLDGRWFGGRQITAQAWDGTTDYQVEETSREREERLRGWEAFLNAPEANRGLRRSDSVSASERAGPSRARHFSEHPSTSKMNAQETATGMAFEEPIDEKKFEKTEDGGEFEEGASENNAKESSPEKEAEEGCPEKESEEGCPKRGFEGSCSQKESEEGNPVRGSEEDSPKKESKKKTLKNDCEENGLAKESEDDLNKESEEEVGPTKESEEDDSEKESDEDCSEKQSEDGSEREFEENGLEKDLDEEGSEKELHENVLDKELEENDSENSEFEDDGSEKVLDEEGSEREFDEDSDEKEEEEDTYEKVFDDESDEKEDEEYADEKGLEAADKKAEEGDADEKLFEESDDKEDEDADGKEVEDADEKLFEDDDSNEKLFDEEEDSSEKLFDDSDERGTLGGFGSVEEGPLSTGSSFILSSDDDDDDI
# UniProt Q12906, whole entry, looked up: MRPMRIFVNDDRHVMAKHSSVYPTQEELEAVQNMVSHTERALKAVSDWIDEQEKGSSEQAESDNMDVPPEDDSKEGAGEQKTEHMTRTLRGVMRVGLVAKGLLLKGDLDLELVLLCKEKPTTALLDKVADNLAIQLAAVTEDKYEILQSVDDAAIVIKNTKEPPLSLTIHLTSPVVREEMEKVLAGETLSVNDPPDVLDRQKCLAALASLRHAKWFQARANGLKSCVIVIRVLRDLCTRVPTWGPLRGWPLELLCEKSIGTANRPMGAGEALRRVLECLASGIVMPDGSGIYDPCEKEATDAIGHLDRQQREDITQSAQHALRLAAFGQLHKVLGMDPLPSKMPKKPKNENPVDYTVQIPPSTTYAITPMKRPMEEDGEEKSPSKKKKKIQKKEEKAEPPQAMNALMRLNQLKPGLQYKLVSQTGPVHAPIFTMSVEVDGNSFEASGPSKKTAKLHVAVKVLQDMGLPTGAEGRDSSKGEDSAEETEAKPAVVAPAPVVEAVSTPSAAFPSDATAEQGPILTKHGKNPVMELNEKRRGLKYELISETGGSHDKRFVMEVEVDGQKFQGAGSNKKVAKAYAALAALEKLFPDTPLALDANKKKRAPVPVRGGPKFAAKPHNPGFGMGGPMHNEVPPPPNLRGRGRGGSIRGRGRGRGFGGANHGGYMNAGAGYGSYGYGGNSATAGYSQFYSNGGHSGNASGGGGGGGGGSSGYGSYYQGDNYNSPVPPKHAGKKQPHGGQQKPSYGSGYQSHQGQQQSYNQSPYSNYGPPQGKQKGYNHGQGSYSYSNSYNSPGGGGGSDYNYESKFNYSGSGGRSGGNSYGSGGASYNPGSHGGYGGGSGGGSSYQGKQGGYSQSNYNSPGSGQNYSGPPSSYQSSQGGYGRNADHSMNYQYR
# UniProt Q9Y4H2: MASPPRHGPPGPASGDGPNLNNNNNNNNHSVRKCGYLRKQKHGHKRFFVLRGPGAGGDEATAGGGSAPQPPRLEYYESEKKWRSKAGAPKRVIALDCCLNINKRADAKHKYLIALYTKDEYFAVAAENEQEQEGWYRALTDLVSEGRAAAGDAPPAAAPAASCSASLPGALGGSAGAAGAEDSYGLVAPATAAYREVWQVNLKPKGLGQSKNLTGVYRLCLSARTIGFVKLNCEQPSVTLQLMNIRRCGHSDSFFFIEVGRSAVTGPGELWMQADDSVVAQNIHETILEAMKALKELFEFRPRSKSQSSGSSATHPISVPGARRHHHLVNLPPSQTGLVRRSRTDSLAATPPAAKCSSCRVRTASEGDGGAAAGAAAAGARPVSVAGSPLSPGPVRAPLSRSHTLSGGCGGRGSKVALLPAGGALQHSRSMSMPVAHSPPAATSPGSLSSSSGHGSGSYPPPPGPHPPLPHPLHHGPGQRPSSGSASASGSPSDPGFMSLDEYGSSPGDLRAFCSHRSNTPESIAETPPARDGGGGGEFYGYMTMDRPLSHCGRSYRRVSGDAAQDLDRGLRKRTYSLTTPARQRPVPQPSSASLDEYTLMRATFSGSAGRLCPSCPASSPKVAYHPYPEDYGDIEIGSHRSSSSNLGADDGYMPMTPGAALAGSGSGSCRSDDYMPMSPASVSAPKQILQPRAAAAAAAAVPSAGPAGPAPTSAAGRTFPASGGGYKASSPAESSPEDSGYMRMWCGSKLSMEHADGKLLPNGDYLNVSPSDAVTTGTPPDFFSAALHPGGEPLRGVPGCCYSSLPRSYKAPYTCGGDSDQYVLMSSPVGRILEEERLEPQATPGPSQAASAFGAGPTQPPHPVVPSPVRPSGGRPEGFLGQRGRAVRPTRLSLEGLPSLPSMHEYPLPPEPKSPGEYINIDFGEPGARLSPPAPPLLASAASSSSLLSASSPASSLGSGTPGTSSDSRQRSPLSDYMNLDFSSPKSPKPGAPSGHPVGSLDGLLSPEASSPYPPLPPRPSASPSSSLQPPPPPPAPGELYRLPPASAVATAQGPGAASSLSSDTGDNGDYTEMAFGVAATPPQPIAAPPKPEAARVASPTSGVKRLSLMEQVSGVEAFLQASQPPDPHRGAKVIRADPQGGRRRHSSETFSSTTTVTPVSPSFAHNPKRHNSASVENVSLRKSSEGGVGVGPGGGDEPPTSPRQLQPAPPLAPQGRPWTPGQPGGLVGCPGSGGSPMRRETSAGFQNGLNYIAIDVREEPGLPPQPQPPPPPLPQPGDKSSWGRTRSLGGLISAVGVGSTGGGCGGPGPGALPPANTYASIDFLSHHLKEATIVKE
# UniProt Q9HDC5: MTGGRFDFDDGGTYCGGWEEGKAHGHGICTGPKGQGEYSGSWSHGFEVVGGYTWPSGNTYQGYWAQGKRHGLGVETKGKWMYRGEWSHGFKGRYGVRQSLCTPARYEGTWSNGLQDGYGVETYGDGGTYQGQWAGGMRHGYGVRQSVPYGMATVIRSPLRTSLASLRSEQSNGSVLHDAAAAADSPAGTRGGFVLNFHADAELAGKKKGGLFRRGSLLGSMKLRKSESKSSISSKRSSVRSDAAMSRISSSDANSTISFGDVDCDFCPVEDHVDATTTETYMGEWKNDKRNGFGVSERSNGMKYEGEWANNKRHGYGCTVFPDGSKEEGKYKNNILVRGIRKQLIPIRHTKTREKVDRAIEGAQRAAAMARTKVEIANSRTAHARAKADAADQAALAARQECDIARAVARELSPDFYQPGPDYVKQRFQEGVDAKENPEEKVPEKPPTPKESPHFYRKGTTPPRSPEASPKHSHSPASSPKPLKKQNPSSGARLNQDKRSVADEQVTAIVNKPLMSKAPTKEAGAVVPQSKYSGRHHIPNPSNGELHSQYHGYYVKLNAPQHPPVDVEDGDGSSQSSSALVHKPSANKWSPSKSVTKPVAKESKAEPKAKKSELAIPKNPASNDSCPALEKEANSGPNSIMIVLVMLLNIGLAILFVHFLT
# UniProt O75449: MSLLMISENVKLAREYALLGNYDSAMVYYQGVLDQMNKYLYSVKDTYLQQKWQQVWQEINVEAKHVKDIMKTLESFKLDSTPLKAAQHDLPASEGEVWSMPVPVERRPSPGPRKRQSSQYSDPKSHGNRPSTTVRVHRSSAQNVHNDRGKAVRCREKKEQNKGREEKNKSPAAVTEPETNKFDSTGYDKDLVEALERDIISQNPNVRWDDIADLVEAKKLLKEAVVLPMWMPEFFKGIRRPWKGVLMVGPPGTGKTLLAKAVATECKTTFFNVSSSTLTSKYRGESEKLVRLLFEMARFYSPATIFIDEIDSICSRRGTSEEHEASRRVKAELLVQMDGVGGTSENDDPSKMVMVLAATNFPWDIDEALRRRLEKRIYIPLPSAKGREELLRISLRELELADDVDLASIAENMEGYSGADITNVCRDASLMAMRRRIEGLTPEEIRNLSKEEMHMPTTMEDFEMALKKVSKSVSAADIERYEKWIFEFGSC
# UniProt Q9UHB6: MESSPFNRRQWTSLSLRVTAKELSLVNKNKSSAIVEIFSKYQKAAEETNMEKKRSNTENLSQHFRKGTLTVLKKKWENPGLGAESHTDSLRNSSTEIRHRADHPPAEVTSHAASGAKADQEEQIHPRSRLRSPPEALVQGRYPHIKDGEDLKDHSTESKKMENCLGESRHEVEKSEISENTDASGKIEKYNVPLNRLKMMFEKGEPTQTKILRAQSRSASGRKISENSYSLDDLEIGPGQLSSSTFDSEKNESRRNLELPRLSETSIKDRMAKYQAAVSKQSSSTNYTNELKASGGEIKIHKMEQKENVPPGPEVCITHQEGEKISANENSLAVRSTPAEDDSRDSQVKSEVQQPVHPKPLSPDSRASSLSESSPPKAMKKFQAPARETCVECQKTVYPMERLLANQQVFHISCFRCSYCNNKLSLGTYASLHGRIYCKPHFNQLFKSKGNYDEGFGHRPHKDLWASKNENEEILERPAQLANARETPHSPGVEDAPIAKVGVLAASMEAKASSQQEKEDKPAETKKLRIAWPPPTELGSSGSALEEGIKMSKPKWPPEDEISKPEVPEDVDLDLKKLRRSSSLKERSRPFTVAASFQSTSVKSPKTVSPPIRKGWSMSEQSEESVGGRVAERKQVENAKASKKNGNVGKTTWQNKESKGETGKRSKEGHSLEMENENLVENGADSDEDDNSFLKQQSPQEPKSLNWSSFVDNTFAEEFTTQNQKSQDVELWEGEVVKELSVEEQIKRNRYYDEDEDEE
# UniProt P43358: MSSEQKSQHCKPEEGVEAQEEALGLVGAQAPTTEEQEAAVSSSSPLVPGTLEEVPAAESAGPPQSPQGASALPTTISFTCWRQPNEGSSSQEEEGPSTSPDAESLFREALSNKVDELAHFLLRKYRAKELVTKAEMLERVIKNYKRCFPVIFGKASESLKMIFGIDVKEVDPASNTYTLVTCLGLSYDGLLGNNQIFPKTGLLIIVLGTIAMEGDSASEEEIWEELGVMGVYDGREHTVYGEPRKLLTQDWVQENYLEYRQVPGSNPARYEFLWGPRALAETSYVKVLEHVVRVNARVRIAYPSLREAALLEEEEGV
# UniProt Q9UNF1: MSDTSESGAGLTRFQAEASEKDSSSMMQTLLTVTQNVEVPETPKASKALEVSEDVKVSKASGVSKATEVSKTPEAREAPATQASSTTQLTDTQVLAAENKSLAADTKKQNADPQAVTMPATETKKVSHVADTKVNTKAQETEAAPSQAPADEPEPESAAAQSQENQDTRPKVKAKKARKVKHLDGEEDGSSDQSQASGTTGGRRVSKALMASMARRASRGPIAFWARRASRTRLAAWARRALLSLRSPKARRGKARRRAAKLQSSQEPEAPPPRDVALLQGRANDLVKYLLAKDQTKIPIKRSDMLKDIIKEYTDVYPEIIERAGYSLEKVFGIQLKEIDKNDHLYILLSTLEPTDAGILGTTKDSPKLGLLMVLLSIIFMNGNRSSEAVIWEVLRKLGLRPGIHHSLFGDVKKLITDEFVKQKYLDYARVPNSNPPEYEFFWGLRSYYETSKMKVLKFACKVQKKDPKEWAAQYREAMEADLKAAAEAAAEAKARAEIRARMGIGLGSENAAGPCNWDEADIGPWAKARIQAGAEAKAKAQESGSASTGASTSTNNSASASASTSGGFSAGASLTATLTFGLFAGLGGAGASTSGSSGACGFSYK
# ± gives the standard deviation of the averaged measurements. Repeats in this data set agree poorly, so a single value says little.
# Compound: CC[C@@H](C)Nc1cc(C(=O)N[C@H]2C[C@H]3CC[C@@H](C2)N3c2ccc(C(=O)C3CC3)cn2)c(C)cc1C(N)=O [XL888]
# Experiment: phosphopeptide melting temperature shift (XL888 minus DMSO); higher = stabilised by drug treatment
# Conditions: 100 µM; treatment time 2 h; layout: intact cells; SK-Mel 28
# Experimental: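 Phospho-TPP in intact SK-Mel 28 cells treated with 100 uM XL888 or DMSO for 2 h, heated at 10 temperatures (37-67 C) for 3 min, soluble fraction TMT10plex-labelled and TiO2 phospho-enriched. Melting curves were fitted per phosphopeptide; the value is the melting point difference (drug minus vehicle) in each of two biological replicates.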
row,Target,phosphopeptide melting temperature shift [°C]
1,HDAC1 phosphosite_421 (phosphosite position: 421) (UniProt Q13547),1.52 ± 0.47
2,HDAC1 phosphosite_423 (phosphosite position: 423) (UniProt Q13547),1.52 ± 0.47
3,HDGF phosphosite_107 (phosphosite position: 107) (UniProt P51858),2.8
4,HDGF phosphosite_133 (phosphosite position: 133) (UniProt P51858),1.02
5,HERC2 phosphosite_2928 (phosphosite position: 2928) (UniProt O95714),1.55 ± 0.23
6,HEXIM2 phosphosite_53 (phosphosite position: 53) (UniProt Q96MH2),-1.19
7,HIRIP3 phosphosite_223 (phosphosite position: 223) (UniProt Q9BW71),1.63
8,HIRIP3 phosphosite_530 (phosphosite position: 530) (UniProt Q9BW71),5.39
9,HNRNPA3 phosphosite_358 (phosphosite position: 358) (UniProt P51991),0.477 ± 0.011
10,HNRNPUL2 phosphosite_185 (phosphosite position: 185) (UniProt Q1KMD3),1.9 ± 0.86
11,HSP90AA1 phosphosite_252 (phosphosite position: 252) (UniProt P07900),7.5
12,HSP90AB1 phosphosite_261 (phosphosite position: 261) (UniProt P08238),4.21
13,HSPA4 phosphosite_538 (phosphosite position: 538) (UniProt P34932),0.851 ± 1.7
14,HTATSF1 phosphosite_616 (phosphosite position: 616) (UniProt O43719),0.766 ± 0.95
15,HTATSF1 phosphosite_624 (phosphosite position: 624) (UniProt O43719),0.766 ± 0.95
16,HTATSF1 phosphosite_713 (phosphosite position: 713) (UniProt O43719),1.54 ± 0.45
17,HTT phosphosite_419 (phosphosite position: 419) (UniProt P42858),1.09
18,HTT phosphosite_432 (phosphosite position: 432) (UniProt P42858),0.679 ± 0.14
19,IARS phosphosite_1047 (phosphosite position: 1047) (UniProt P41252),1.64
20,IGF2R phosphosite_2479 (phosphosite position: 2479) (UniProt P11717),-4.66
21,ILF3 phosphosite_476 (phosphosite position: 476) (UniProt Q12906),-0.279 ± 0.44
22,ILF3 phosphosite_477 (phosphosite position: 477) (UniProt Q12906),-0.189 ± 0.88
23,INPP5F phosphosite_827 (phosphosite position: 827) (UniProt Q9Y2H2),1.09
24,INPP5F phosphosite_830 (phosphosite position: 830) (UniProt Q9Y2H2),2.96

# Look-ups from the list:
# phosphopeptide melting temperature shift [°C], HDGF phosphosite_107 (phosphosite position: 107) (UniProt P51858) is entered as 2.8
# phosphopeptide melting temperature shift [°C], HDAC1 phosphosite_421 (phosphosite position: 421) (UniProt Q13547) is entered as 1.52 ± 0.47
# phosphopeptide melting temperature shift [°C], ILF3 phosphosite_476 (phosphosite position: 476) (UniProt Q12906) is entered as -0.279 ± 0.44

# Further results

row,Target,phosphopeptide melting temperature shift [°C]
1,INPP5F phosphosite_935 (phosphosite position: 935) (UniProt Q9Y2H2),1.4
2,IP6K1 phosphosite_127 (phosphosite position: 127) (UniProt Q92551),-0.612
3,IRS2 phosphosite_560 (phosphosite position: 560) (UniProt Q9Y4H2),-3.27
4,IRS2 phosphosite_577 (phosphosite position: 577) (UniProt Q9Y4H2),4.16
5,IRS2 phosphosite_1174 (phosphosite position: 1174) (UniProt Q9Y4H2),1.42 ± 2.6
6,IWS1 phosphosite_27 (phosphosite position: 27) (UniProt Q96ST2),2.39
7,IWS1 phosphosite_159 (phosphosite position: 159) (UniProt Q96ST2),1.76 ± 1.5
8,IWS1 phosphosite_248 (phosphosite position: 248) (UniProt Q96ST2),1.46
9,IWS1 phosphosite_250 (phosphosite position: 250) (UniProt Q96ST2),1.46
10,IWS1 phosphosite_362 (phosphosite position: 362) (UniProt Q96ST2),0.105 ± 1.1
11,IWS1 phosphosite_363 (phosphosite position: 363) (UniProt Q96ST2),0.401 ± 0.66
12,IWS1 phosphosite_365 (phosphosite position: 365) (UniProt Q96ST2),0.407 ± 0.65
13,IWS1 phosphosite_400 (phosphosite position: 400) (UniProt Q96ST2),2.77 ± 1.6
14,IWS1 phosphosite_720 (phosphosite position: 720) (UniProt Q96ST2),0.976
15,JPH1 phosphosite_475 (phosphosite position: 475) (UniProt Q9HDC5),0.463 ± 1.4
16,JPH1 phosphosite_478 (phosphosite position: 478) (UniProt Q9HDC5),0.963
17,JPH1 phosphosite_479 (phosphosite position: 479) (UniProt Q9HDC5),0.862 ± 1.9
18,KATNA1 phosphosite_170 (phosphosite position: 170) (UniProt O75449),0.919
19,KCNAB2 phosphosite_111 (phosphosite position: 111) (UniProt Q13303),-2.09
20,KCTD12 phosphosite_185 (phosphosite position: 185) (UniProt Q96CX2),0.245
21,KIAA1522 phosphosite_669 (phosphosite position: 669) (UniProt Q9P206),1.46 ± 0.4
22,KIAA1522 phosphosite_673 (phosphosite position: 673) (UniProt Q9P206),1.46 ± 0.4
23,KLC2 phosphosite_151 (phosphosite position: 151) (UniProt Q9H0B6),1.41
24,KLC4 phosphosite_590 (phosphosite position: 590) (UniProt Q9NSK0),1.83 ± 1.5

row,Target,phosphopeptide melting temperature shift [°C]
1,KMT2D phosphosite_4738 (phosphosite position: 4738) (UniProt O14686),1.24
2,KRI1 phosphosite_628 (phosphosite position: 628) (UniProt Q8N9T8),-0.122 ± 1.1
3,KRI1 phosphosite_639 (phosphosite position: 639) (UniProt Q8N9T8),0.598 ± 0.2
4,LARP1 phosphosite_225 (phosphosite position: 225) (UniProt Q6PKG0),0.203
5,LARP1 phosphosite_548 (phosphosite position: 548) (UniProt Q6PKG0),1.12 ± 0.47
6,LARP1 phosphosite_631 (phosphosite position: 631) (UniProt Q6PKG0),0.727 ± 0.022
7,LARP1 phosphosite_649 (phosphosite position: 649) (UniProt Q6PKG0),3.69
8,LARP1 phosphosite_824 (phosphosite position: 824) (UniProt Q6PKG0),0.186
9,LIMA1 phosphosite_132 (phosphosite position: 132) (UniProt Q9UHB6),-0.932 ± 1.3
10,LIMA1 phosphosite_225 (phosphosite position: 225) (UniProt Q9UHB6),2.97 ± 0.65
11,LIMA1 phosphosite_698 (phosphosite position: 698) (UniProt Q9UHB6),1.68
12,LMNA phosphosite_390 (phosphosite position: 390) (UniProt P02545),0.072
13,LMNA phosphosite_392 (phosphosite position: 392) (UniProt P02545),0.993 ± 0.2
14,LRWD1 phosphosite_212 (phosphosite position: 212) (UniProt Q9UFC0),0.475 ± 0.79
15,LYST phosphosite_2124 (phosphosite position: 2124) (UniProt Q99698),0.868 ± 0.36
16,LYST phosphosite_2213 (phosphosite position: 2213) (UniProt Q99698),0.487
17,LYST phosphosite_2264 (phosphosite position: 2264) (UniProt Q99698),-0.5
18,MAGEA4 phosphosite_99 (phosphosite position: 99) (UniProt P43358),1.67
19,MAGED2 phosphosite_190 (phosphosite position: 190) (UniProt Q9UNF1),0.437 ± 1.6
20,MAGED2 phosphosite_191 (phosphosite position: 191) (UniProt Q9UNF1),0.973 ± 0.13
21,MAGED2 phosphosite_194 (phosphosite position: 194) (UniProt Q9UNF1),0.878 ± 0.51
22,MAP1B phosphosite_948 (phosphosite position: 948) (UniProt P46821),1.89 ± 0.39
23,MAP1B phosphosite_970 (phosphosite position: 970) (UniProt P46821),-1.4
